Assay results as given in patent US20230201357, “D-DIMER-SPECIFIC APTAMERS AND METHODS OF USE IN DIAGNOSTICS, THERAPEUTIC AND THERANOSTIC PURPOSES” (APTAMER DIAGNOSTIC, INC., published 2023).

Chains of the proteins cited; added tags and fusions are not shown. Chains listed by the source or under a name are the forms on record and can include a tag or linker.
D-dimer (cross-linked fibrin degradation product) (Homo sapiens), one chain, as listed by the source, chain 2 of 3: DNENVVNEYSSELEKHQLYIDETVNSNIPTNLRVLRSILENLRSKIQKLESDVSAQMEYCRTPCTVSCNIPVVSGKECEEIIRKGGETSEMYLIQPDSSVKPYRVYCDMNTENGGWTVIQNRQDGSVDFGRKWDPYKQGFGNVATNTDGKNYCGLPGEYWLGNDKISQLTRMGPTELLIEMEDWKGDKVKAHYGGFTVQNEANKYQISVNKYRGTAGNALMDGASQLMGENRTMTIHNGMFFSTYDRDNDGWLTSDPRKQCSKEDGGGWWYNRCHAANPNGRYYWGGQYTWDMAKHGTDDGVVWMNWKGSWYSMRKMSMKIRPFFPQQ
D-dimer (cross-linked fibrin degradation product) (Homo sapiens), one chain, as listed by the source, chain 3 of 3: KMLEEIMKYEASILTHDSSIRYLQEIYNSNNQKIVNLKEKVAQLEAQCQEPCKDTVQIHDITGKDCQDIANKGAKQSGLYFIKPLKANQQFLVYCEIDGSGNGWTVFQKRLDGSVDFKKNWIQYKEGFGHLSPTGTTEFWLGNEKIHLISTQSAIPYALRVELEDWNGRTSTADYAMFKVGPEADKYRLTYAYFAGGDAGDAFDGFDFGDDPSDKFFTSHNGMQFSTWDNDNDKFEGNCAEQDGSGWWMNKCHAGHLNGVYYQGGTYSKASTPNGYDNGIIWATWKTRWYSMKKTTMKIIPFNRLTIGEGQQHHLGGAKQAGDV
D-dimer (cross-linked fibrin degradation product) (Homo sapiens), one chain, as listed by the source, chain 1 of 3: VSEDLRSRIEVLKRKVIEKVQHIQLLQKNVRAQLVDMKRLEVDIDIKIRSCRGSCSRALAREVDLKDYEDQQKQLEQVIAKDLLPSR

Assays:
[1] = system: D-dimer (cross-linked fibrin degradation product) (Homo sapiens); test: SELEX; settings: enrichment only, purified native protein, single-stranded DNA
[2] = system: D-dimer (cross-linked fibrin degradation product) (Homo sapiens); test: ELONA; settings: 25 nM, purified native protein, single-stranded DNA
[3] = full length shows best binding, label: 3' biotin, variant of ADI1701
[4] = lower binding than ADI1701, label: biotin

## GGCGATGTAGCGTGTGAAGACACTCCTGAATAGCTGCCTG [ADI1704]
[1]; 530 reads at round 9
  selection result: selected

## TCCCGATTTGGTGTAAAATTCCCTCAGCCCTACA [ADI1701Trun2]
[2]; [3]
  binding result: binds more weakly

## GCCGGTGTAGGTGGTGTAGACCATTTCTCTCGTGCTTGGC [ADI1703]
[2]; [4]
  binding result: binds more weakly

## GCGCGGTCCCGATTTGGTGTAAAATTCCCT [ADI1701Trun4]
[2]; [3]
  binding result: binds more weakly

## GCTGTGGGGCCAGTTTCGATGTAGAAATCCGATATGTAAC [ADI1706]
[1]; 426 reads at round 9
  selection result: selected

## GCGCGGTCCCGATTTGGTGTAAAATTCCCTCAGCCCTACG [ADI1702]
[2]; [4]
  binding result: binds more weakly

## AGACCCGCGGTTCGTCGAGCTCTTGCGGCAGGGTCCAAGA [ADI1710]
[1]; 230 reads at round 9
  selection result: selected

## GTCGATGTAGATGGTGCAGACCAGCCTTCGTTGTAGTCCA [ADI1708]
[1]; 354 reads at round 9
  selection result: selected

## AGACCGATGTAGGCCCAGAAGTGGGTGTCCGCACAAGTGC [ADI1707]
[1]; 386 reads at round 9
  selection result: selected

## CGGTCCCGATTTGGTGTAAAATTCCCTCAGCC [ADI1701Trun5]
[2]; [3]
  binding result: binds more weakly

## GCGGCACGGCAAGGCTGTTCGTTGTTTGTTGTGACGCCCG [ADI1712]
[1]; 192 reads at round 9
  selection result: selected

## GGCGATGTAGCAGCCGCAGGGCTTACTTCTATACACCTCG [ADI1715]
[1]; 164 reads at round 9
  selection result: selected

## GCCGGTGTAGGTCACAAAGGTGATCCGATCTCCCGTATGT [ADI1709]
[1]; 243 reads at round 9
  selection result: selected

## CGGTGTAGACCCTGGAGAGGGTGTGCATATGTCCGGTTGC [ADI1705]
[1]; 489 reads at round 9
  selection result: selected

## TGGCTCGGTGTAGACTCCCGCGGAGATTCAGTTCCCTGTT [ADI1713]
[1]; 187 reads at round 9
  selection result: selected

## GCGCGGTCCCGATTTGGTGTAAAATTCCCTCAGCC [ADI1701Trun3]
[2]; 3' deletion of 5 bases affected binding, label: 3' biotin, variant of ADI1701
  binding result: binds more weakly

For some of these results: The comparison behind a weaker result is the experiment's own reference, which may not be listed here. For some of these results: For at least one entry, the source does not settle the construct or the ends of the probe.
